Measured values from patent publication US20230091810A1, “FIRST-IN-CLASS OF SHMT2 AND MTHFD2 INHIBITORS AS ANTITUMOR AGENTS” (Duquesne University of the Holy Spirit, priority 2017, published 2023).
Some entries share one result that the patent states for a list of compounds. Some compounds share one range, which may span the group rather than tell each member.

Key:
[1] = tested on: HCT116 cells; assay: targeted metabolomics with [2,3,3-2H]serine tracer, HCT116 cells; assay type: cell-based, human; conditions: 10 µM drug
From the text: (§1) Identification of the mitochondrial enzyme target for AGF291, AGF320, and AGF347 by targeted metabolomics. […] The cells were processed for LC-MS analyses of total serine, and of M+3, M+2, M+1, and M+0 (unlabeled) serine (where M+n represents species with n deuterium atoms). The results with the drug-treated cells were compared to those for untreated cells. For WT HCT116 cells, the results were compared to those for SHMT2 KO, MTHFD2 KO, and SHMT1 KO cells (KO of SHMT2, MTHFD2, and SHMT1, respectively (20)). For H460 cells, controls included non-targeted control (NTC) and SHMT2 shRNA knockdown (KD) cells.
(§2) Targeted Metabolomics. Targeted metabolomics were performed essentially as previously described (47, 53). Briefly, cells (H460, HCT116, MIA PaCa-2) (1 million cells /dish for vehicle-treated samples, 1.5 million cells/dish for drug-treated samples) were seeded in triplicate 60 mm dishes in 5 ml of folate-free RPMI (contains glycine and unlabeled serine) supplemented with 10% dialyzed fetal bovine serum, 1% penicillin/streptomycin, 2 mM L-glutamine, and 25 nM leucovorin. Cells were allowed to adhere for 24 h. […] The supernatants were collected and analyzed by reversed-phase ion-pairing chromatography coupled with negative-mode electrospray-ionization high-resolution mass spectrometry on a stand-alone Orbitrap (ThermoFisher Exactive). […]

[2] = tested on: H460 cells; assay: targeted metabolomics with [2,3,3-2H]serine tracer, H460 cells; assay type: cell-based, human; conditions: 10 µM drug
From the text: as §1, §2

## Nc1nc2ccn(CCCCCc3ccc(C(=O)N[C@@H](CCC(=O)O)C(=O)O)s3)c2c(=O)[nH]1 [AGF320]
[1]
  decreased M+2 serine compared to WT cells: 2-3 fold
[1]; WT HCT116 cells, [2,3,3-2H]serine
  M+3 serine fraction (% of total serine): 55-60%
[2]
  reduction of dTTP pools: 60-70%
